Data taken from patent US20200239593A1 (AIMM THERAPEUTICS B V, published 2020).
No constants are given. Whether binding was seen depends on the method and setting. Some results given as binding are weak or reduced against the parent protein; the word gives no strength.

By UniProt entry, the sequences of proteins in these tests, tags left out.
UniProt O75643: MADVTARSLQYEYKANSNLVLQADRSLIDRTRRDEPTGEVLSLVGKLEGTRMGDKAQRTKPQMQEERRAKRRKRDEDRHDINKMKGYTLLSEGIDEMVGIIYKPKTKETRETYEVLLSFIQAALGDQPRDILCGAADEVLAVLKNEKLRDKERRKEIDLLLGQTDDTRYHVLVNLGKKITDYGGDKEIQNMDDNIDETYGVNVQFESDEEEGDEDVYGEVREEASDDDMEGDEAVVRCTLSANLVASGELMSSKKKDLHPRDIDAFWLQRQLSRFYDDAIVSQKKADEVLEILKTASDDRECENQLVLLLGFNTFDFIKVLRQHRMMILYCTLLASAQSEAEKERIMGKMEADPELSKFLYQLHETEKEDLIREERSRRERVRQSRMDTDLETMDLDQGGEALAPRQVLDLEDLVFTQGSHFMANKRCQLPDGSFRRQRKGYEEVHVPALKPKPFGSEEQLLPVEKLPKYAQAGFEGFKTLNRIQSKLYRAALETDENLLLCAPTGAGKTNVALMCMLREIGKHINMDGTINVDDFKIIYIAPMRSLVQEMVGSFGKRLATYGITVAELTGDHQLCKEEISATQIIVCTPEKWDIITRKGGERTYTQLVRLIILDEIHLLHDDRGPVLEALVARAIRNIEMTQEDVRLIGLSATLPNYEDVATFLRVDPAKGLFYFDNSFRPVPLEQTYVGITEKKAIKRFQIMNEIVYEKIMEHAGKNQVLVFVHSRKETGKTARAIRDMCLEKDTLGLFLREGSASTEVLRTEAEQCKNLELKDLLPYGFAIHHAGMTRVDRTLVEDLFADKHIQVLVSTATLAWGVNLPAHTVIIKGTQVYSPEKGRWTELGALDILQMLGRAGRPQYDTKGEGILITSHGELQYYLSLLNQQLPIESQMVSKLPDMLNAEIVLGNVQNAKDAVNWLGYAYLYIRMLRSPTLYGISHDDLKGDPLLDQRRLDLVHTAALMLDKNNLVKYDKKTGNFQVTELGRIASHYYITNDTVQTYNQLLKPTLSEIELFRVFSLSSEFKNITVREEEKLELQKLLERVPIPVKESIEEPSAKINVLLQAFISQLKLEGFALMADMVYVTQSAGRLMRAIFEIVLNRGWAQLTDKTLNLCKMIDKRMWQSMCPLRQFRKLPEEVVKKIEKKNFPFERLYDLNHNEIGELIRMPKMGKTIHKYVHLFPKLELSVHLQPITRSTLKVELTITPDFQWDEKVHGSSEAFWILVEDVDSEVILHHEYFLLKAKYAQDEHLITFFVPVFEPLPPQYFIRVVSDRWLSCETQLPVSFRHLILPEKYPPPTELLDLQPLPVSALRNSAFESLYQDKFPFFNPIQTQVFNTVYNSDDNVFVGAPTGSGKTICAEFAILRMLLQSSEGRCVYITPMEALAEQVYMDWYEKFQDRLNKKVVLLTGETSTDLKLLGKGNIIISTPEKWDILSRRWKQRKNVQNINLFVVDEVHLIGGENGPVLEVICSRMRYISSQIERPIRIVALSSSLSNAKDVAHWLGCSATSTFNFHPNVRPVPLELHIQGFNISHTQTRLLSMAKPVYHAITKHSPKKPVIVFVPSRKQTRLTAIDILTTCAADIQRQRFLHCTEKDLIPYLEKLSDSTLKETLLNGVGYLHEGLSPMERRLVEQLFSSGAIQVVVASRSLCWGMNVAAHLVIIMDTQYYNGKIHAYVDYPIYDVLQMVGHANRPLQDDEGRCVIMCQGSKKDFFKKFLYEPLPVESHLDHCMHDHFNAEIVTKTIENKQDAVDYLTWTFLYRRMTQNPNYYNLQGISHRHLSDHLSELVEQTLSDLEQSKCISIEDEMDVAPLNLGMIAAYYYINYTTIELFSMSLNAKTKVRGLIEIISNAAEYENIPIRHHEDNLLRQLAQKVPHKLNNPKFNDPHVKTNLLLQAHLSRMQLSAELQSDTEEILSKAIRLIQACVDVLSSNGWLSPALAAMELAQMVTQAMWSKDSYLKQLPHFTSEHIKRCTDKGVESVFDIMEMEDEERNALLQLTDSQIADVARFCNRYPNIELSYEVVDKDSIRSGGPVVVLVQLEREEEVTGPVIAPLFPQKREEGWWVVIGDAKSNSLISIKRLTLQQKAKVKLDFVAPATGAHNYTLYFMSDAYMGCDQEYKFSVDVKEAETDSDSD

Key:
snRNP200-flag construct [1] = target: T1, snRNP200-flag construct (UniProt O75643 1-2136, limits assumed); test: capture ELISA with snRNP200-flag lysate
T1 construct: mature; Used as lysate at 3 ug/ml, not purified; also called full-length snRNP200 with an N-terminal FLAG tag; not shown: N-terminal FLAG tag

snRNP200-flag construct [2] = target: T1, snRNP200-flag construct; test: capture ELISA: antibody coated, snRNP200-flag captured, anti-flag HRP detection

Row | binding (snRNP200-flag construct [1]) | binding (snRNP200-flag construct [2]) | Binder
1 | binds | binds | AT13-037 (antibody, IgG3, V domains shown) VH: QVQLVESGGGVVQPGRSLRLSCAASGFTFSTYGMHWVRQAPGKGLEWVAVIWYDGSNTYYADSVKGRFTISRDNSKNTLYLQIKSLRAEDTAVYYCARGRGYSAQGNRNRAYYFDYWGQGTLVTVSS VL: EIVMTQSPATLSVSPGERVILSCRASQSVSSNLAWYQQKPGQPPRLLIYGAFTRVTGVPARFSGSGSGTEFTLTISSLQSEDFAVYYCQQYNDRPPYTFGQGTKLEIK
2 | binds | binds | AT12-023 (antibody, V domains shown, Human antibody from AML patient donor 59; also called antibody AT12-023) VH: QVQLQQWGAGLLKPSETLSLTCAVYGGSFSGYYWSWIRQPPGKGLEWIGEINHSGSTNYNPSLKSRVTISVDTSKNQFSLKLSSVTAADTAVYYCARGRSTSPLDYYYYYMDVWAKGTTVTVSS VL: SSELTQDPAVSVALGQTVRITCQGDFLRSYYASWYQQKPGQAPVLVIFGKNKRPSGIPDRFSGSSSGNTASLTITGAQAEDEADYYCNSRDRSGNHLVFGGGTKLTVL
